Data taken from ChEMBL document CHEMBL3988442, “University of Dundee, Small-Polar-MMV Screening Library” (2021).

Amino acid sequences for entries named in this document (tags omitted). Residues count along the entry.
UniProt A4I591, 1-473: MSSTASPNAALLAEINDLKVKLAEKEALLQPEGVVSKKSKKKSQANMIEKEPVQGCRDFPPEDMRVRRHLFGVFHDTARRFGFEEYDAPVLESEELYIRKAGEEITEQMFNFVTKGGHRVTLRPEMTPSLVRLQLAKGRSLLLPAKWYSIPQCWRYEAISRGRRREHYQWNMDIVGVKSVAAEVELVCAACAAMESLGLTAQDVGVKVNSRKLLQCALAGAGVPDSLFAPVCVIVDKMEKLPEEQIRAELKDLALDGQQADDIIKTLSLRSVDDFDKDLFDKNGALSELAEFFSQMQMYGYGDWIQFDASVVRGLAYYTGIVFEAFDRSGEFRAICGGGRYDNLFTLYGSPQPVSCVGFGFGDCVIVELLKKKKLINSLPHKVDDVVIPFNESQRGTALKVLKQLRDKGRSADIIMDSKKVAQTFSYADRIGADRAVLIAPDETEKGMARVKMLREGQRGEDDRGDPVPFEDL

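Histidine-tRNA ligase, Leishmania infantum (UniProt A4I591). Enzyme assay of histidyl-tRNA synthetase; the read-out is not stated. Tested at 30 µM. The record gives no direction; compounds that gave an IC50 in retests scored well above the rest, so higher reads as stronger inhibition. The assay is labelled LdHisRS but filed under L. infantum. Size under these conditions: about 69,000 compounds, about 410 of them at 50% or above in at least one test.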

Results are given as percent effect. The record does not define 0% and 100%; most values in the screen are far below 50% and negative numbers occur (in some assays of this library far below -100). The compounds are a random part of those screened.

Cn1nc(CN2CCOCC2)c2c1CN(Cc1ccsc1)C2 gave 15.15%. Result for CCS(=O)(=O)N1C[C@@H]2CN(Cc3cccs3)CCO[C@@H]2C1 was -3.419%. With COc1ncccc1CNC(=O)c1cccc(C)n1 the screen gave 12.77%. Cc1cnc(C(=O)N2CCC3(CC2)CC(c2ccccc2)C(=O)N3)cn1 (stereo not given) read -174.3%.

CC(C)c1nc(CN2CCN(C(=O)Cc3ccccc3Cl)CC2)no1 read 10.71%. For Cc1ccc(C(=O)N2CCC3(CC(N(C)c4ccncn4)C3)C2)cn1 (stereo not given) the result was 1.449%. Result for CC(=O)Nc1cccc(C(C)NCC2CCS(=O)(=O)CC2)c1 (stereo not given) was 2.857%. For CCn1c(CN2CCCC2)nnc1C1CCN(Cc2ccncc2)CC1 the result was 17.81%.

Result for CN(Cc1nc(-c2ccccc2)no1)Cc1cnc(N2CCOCC2)s1 was -1.399%. With c1cc(-c2noc([C@@H]3CCCN3C3CCC3)n2)cc(N2CCCC2)n1 the screen gave 18.92%. COc1cc(CN(C)C(C)c2ccccn2)cc2c1OCO2 (stereo not given) read 17.6%. Cc1ccc(N2C[C@@H]3CCCO[C@@H]3[C@H](N3CCCC3)C2)nn1 gave -3.448%.

With Cc1cc(C)n(-c2ccc(CNCc3cccc(C#N)c3)cn2)n1 the screen gave 21.43%. COc1nc2c(cc1C(=O)NCCCc1nnc(N)s1)CCC2 gave 8%. Result for CC(C)OCCN(C)C(C)c1cccc(S(N)(=O)=O)c1 (stereo not given) was -3.125%. Result for COc1cc(Cl)c(NC(=O)NCCn2cccc2)cc1OC was 9.859%.

Cc1nn(-c2ccccc2)c2c1C(c1ccc(C(=O)O)cc1)CC(=O)N2 (stereo not given) gave 18.45%. CSCC[C@H](N)C(=O)NCc1cc2n(n1)CCCN(C(=O)N(C)C)C2 gave -26.97%. Result for O=C(Nc1cc(-c2cccnc2)no1)C1CCCCC1 was 11.76%. CCCN(Cc1nccn1C)C(=O)C(CC)Nc1cccc(OC)c1 (stereo not given) gave 10.75%.

Result for CCC(NC(=O)c1ccc(OC)nn1)c1nc(C(F)(F)F)cs1 (stereo not given) was 12.61%. c1csc(CN2CCn3c(Cn4cncn4)cnc3C2)n1 gave 8.029%. Result for CC(C)CNC(=O)CN(C)S(C)(=O)=O was 6.122%. Result for COc1cc(CNC(=O)Nc2nnc(C(C)C)s2)ccn1 was 15.38%.

For Cn1cc(CN2CCC(c3cc(COc4cccc(Cl)c4)[nH]n3)C2)cn1 (stereo not given) the result was 7.194%. Cc1noc(C2CCCN(C(=O)c3scnc3Cl)C2)n1 (stereo not given) read 15%. With Cc1nccn1-c1ncccc1CNC(=O)c1ccc(O)nc1 the screen gave 14.67%. CCOCC1CN(C(=O)C2CCOCC2)Cc2cnn(C)c21 (stereo not given) read 1.389%.

For Cc1nn(C)cc1CN1CCCC(n2c(=O)oc3ccccc32)C1 (stereo not given) the result was 4.348%. For O=C(c1ccncc1)N1CCCC(c2cc(C(F)F)n3ncnc3n2)C1 (stereo not given) the result was -3.125%. For CCC(CC)C(=O)NCC1(NC(C)c2ccccc2)CCOCC1 (stereo not given) the result was -1.075%. With Cc1nc(C#N)c(N2CCC(c3nc(-c4ccccc4)no3)CC2)o1 the screen gave 1.695%.

Cc1cc(C)n(CC2CCCN2C(=O)c2nccc3ccccc23)n1 (stereo not given) gave 13.27%.

2 of the entries, repeated:

{"structure": "COc1cc(Cl)c(NC(=O)NCCn2cccc2)cc1OC", "percent effect": 9.859}
{"structure": "CC(C)c1nc(CN2CCN(C(=O)Cc3ccccc3Cl)CC2)no1", "percent effect": 10.71}